Drawing on publication PMC8042982, this text covers binding for two substances.

One test addresses p53-EGFP (UniProt P04637). The experiment in a line: co-IP; HEK293T cells co-transfected, whole cell extracts 24 h after transfection (50 mM Tris pH 8, 150 mM NaCl, 5 mM EDTA, 0.5% NP40, 1 mM DTT), sonicated; IP with anti-GFP antibody (µMACS isolation kit for tagged proteins), eluates immunoblotted.
Another test has as its target TIP60-HA (UniProt Q92993). The experiment in a line: co-IP; HEK293T cells co-transfected, whole cell extracts 24 h after transfection (50 mM Tris pH 8, 150 mM NaCl, 5 mM EDTA, 0.5% NP40, 1 mM DTT), sonicated; IP with anti-HA tag antibody (µMACS isolation kit for tagged proteins), eluates immunoblotted.

Results are given in words; binding and its absence hold for the method and conditions named. Binding seen in cells or lysates may run through a third protein. Some entries that bind do so weakly or less than the wild type.

As for TIP60-HA (from UniProt Q92993 1-513), the binding result with p53-EGFP is recorded as “binds”.

With p53-EGFP (from UniProt P04637 1-393), the binding entry in the test with TIP60-HA is on record as “binds”.
